Results are given in words; binding and its absence hold for the method and conditions named. Binding seen in cells or lysates may run through a third protein. Some entries that bind do so weakly or less than the wild type. Where a sequence is shown, tags or fusion partners need not be part of it.
T1: UDT1-nYFP (UNDEVELOPED TAPETUM1 fused with the N-terminal split of YFP) (rice (japonica cv. Nipponbare)) (UniProt B9FXT3)
T1 sequence: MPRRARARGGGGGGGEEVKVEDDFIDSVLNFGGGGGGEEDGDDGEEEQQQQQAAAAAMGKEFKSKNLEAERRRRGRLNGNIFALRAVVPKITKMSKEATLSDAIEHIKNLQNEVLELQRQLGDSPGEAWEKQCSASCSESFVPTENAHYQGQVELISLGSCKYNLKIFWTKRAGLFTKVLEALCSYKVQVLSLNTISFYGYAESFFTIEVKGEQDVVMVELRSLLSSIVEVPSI

T2: nYFP-UDT1 (UNDEVELOPED TAPETUM1 fused with the N-terminal split of YFP) (rice (japonica cv. Nipponbare)) (UniProt B9FXT3)
T2 sequence: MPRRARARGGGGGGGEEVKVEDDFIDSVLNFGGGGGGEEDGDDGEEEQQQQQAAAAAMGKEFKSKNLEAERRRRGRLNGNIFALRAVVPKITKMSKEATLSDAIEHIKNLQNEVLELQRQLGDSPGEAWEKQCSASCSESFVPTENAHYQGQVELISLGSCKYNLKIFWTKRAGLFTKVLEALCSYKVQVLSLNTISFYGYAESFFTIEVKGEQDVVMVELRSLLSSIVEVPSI


What was measured:
[1] = biological target: T1, UDT1-nYFP (UNDEVELOPED TAPETUM1 fused with the N-terminal split of YFP) (rice (japonica cv. Nipponbare)); experiment: split reporter; BiFC in rice protoplasts; pairs of split YFP (nYFP/cYFP) fusions cotransfected with the nuclear marker H2B-tagRFP; confocal images under identical conditions, compared with negative controls
[2] = biological target: T2, nYFP-UDT1 (UNDEVELOPED TAPETUM1 fused with the N-terminal split of YFP) (rice (japonica cv. Nipponbare)); experiment: as above

| Binder | binding [1] | binding [2] |
| --- | --- | --- |
| EAT1-cYFP (ETERNAL TAPETUM1 fused with the C-terminal split of YFP) (natural protein, rice (japonica cv. Nipponbare), UniProt Q7X8R0 1-464, looked up) MIVGAGYFEDSHDQSLMAGSLIHDSNQAPASSENTSIDLQKFKVHPYSTEALSNTANLAEAARAINHLQHQLEIDLEQEVPPVETANWDPAICTIPDHIINHQFSEDPQNILVEQQIQQYDSALYPNGVYTPAPDLLNLMQCTMAPAFPATTSVFGDTTLNGTNYLDLNGELTGVAAVPDSGSGLMFASDSALQLGYHGTQSHLIKDICHSLPQNYGLFPSEDERDVIIGVGSGDLFQEIDDRQFDSVLECRRGKGEFGKGKGKANFATERERREQLNVKFRTLRMLFPNPTKNDRASIVGDAIEYIDELNRTVKELKILVEQKRHGNNRRKVLKLDQEAAADGESSSMRPVRDDQDNQLHGAIRSSWVQRRSKECHVDVRIVDDEVNIKLTEKKKANSLLHAAKVLDEFQLELIHVVGGIIGDHHIFMFNTKVSEGSAVYACAVAKKLLQAVDVQHQALDIFN | binds | binds |
| cYFP-EAT1 (ETERNAL TAPETUM1 fused with the C-terminal split of YFP) (protein, UniProt Q7X8R0 1-464) MIVGAGYFEDSHDQSLMAGSLIHDSNQAPASSENTSIDLQKFKVHPYSTEALSNTANLAEAARAINHLQHQLEIDLEQEVPPVETANWDPAICTIPDHIINHQFSEDPQNILVEQQIQQYDSALYPNGVYTPAPDLLNLMQCTMAPAFPATTSVFGDTTLNGTNYLDLNGELTGVAAVPDSGSGLMFASDSALQLGYHGTQSHLIKDICHSLPQNYGLFPSEDERDVIIGVGSGDLFQEIDDRQFDSVLECRRGKGEFGKGKGKANFATERERREQLNVKFRTLRMLFPNPTKNDRASIVGDAIEYIDELNRTVKELKILVEQKRHGNNRRKVLKLDQEAAADGESSSMRPVRDDQDNQLHGAIRSSWVQRRSKECHVDVRIVDDEVNIKLTEKKKANSLLHAAKVLDEFQLELIHVVGGIIGDHHIFMFNTKVSEGSAVYACAVAKKLLQAVDVQHQALDIFN | binds | binds |
| TIP2-cYFP (TDR … PROTEIN2 fused with the C-terminal split of YFP) (protein, UniProt Q5JNS0 1-379) MYHPQCELLMPLESLEMDVGQSHLAAAVAAAMPGELNFHLLHSLDAAAAAASSTAASASSQPTVDYFFGGADQQPPPPAAMQYDQLAAPHHHQTVAMLRDYYGGHYPPAAAAAAATEAYFRGGPRTAGSSSLVFGPADDESAFMVGPFESSPTPRSGGGRKRSRATAGFHGGGPANGVEKKEKQRRLRLTEKYNALMLLIPNRTKEDRATVISDAIEYIQELGRTVEELTLLVEKKRRRREMQGDVVDAATSSVVAGMDQAAESSEGEVMAAAAMGAVAPPPRQAPIRSTYIQRRSKETFVDVRIVEDDVNIKLTKRRRDGCLAAASRALDDLRLDLVHLSGGKIGDCHIYMFNTKIHSGSPVFASAVASRLIEVVDEY | binds | binds |
| cYFP-TIP2 (TDR … PROTEIN2 fused with the C-terminal split of YFP) (protein, UniProt Q5JNS0 1-379) MYHPQCELLMPLESLEMDVGQSHLAAAVAAAMPGELNFHLLHSLDAAAAAASSTAASASSQPTVDYFFGGADQQPPPPAAMQYDQLAAPHHHQTVAMLRDYYGGHYPPAAAAAAATEAYFRGGPRTAGSSSLVFGPADDESAFMVGPFESSPTPRSGGGRKRSRATAGFHGGGPANGVEKKEKQRRLRLTEKYNALMLLIPNRTKEDRATVISDAIEYIQELGRTVEELTLLVEKKRRRREMQGDVVDAATSSVVAGMDQAAESSEGEVMAAAAMGAVAPPPRQAPIRSTYIQRRSKETFVDVRIVEDDVNIKLTKRRRDGCLAAASRALDDLRLDLVHLSGGKIGDCHIYMFNTKIHSGSPVFASAVASRLIEVVDEY | binds | binds |
